Out of some 320,000 compounds screened, about 200 (0.062%) were called active. Not shown: some 6% with an inconclusive outcome. Calls come from the whole dose curve; as a rule, active = well fitted activation curve with a large enough effect; inconclusive = small, poorly fitted or top-dose-only effect; inactive = no such curve, though single readings can be large or run the other way. The list shows a part of the results, in another mix than the full data. The source gives no active or inactive call for entries shown without one.
Assay: qHTS assay for re-activators of p53 using a Luc reporter; note: nearly all actives have a fitted effect of over 45% in size; for activity change, positive = activation: % of control where 0% means no effect
Conditions: H1299 p53-A138V BP100-luciferase reporter, luminescence, 24 h; activity change, positive = activation: at 92.2 µM (top of the series)
Procedure, shortened: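 H1299 (p53-null), stable ts p53-A138V + BP100-Luc; 1000 cells/well, Opti-MEM/10% FBS; cpd 4 pt, 1:5; 24 h, 37 deg C, 5% CO2; detection reagent 10 min RT; luminescence.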
Potency is the fitted concentration of half-maximal effect.

| SMILES | activity change, positive = activation | Potency |
| --- | --- | --- |
| CCOC(=O)c1sc2nc(-c3ccccc3)ccc2c1N | 81.5% |  |
| O=C1CN(c2nc(-c3ccccc3)c3cc(Cl)ccc3n2)c2ccccc2N1 | 35.6% |  |
| O=[N+]([O-])c1ccc(NC(=S)NCc2ccc(F)cc2)cc1 | inactive: -30.6% |  |
| Clc1cccc(Nc2ncnc3c2cnn3-c2ccccc2)c1 | inactive: -0.907% |  |
| O=C(Nn1c(SCc2ccc([N+](=O)[O-])cc2)nc2ccccc2c1=O)c1ccc(F)cc1 | 81% |  |
| O=C(Cn1cc(SCc2cccc(Cl)c2)c2ccccc21)N1CCOCC1 |  | active: 28.2 µM |
| Cc1ccc(-c2nc3n(n2)Cc2ccccc2-3)cc1 | 40.7% |  |
| Cc1nn(-c2ccccc2)c(Cl)c1/C=N/Nc1nc2ccccc2[nH]1 | 66.5% |  |
| COC(=O)c1cn[nH]c1NC(=S)Nc1ccc(C)cc1Cl | 133% |  |
| COc1ccc2nc(NCc3ccccc3)[nH]c2c1 | 36.1% |  |
| COc1ccc(-c2c(-c3ccc(OC)c(C)c3O)n[nH]c2C)cc1 | inactive: -74.8% |  |
| C#CCOC(=O)c1ccccc1C(=O)n1nnc2ccccc21 | inactive: -30.6% |  |
| O=C(Nc1ncc2c(n1)CC(c1cccc(Cl)c1)CC2=O)c1ccco1 (stereo not drawn) | inactive: -30.8% |  |
| CN1c2ccccc2C(C)(C)C12C=Cc1cc(O)ccc1O2 (stereo not drawn) | inactive: 4.25% |  |
| Cc1ccc(CNc2nc3ccccc3s2)s1 | 22.8% |  |
| O=C(Nc1ncccc1O)c1cc2ccccc2o1 | 66.4% |  |
| Cc1ccc(S(=O)(=O)N(CC(=O)Nc2cccnc2)c2cccc(Br)c2)cc1 | inactive: -34.1% |  |
| Cc1nc(NC(=O)c2csc3ccccc23)sc1C | 31.7% |  |
| O=C(CN1C(=O)NC2(CCCCC2)C1=O)Nc1ccc2c(c1)OCCCO2 | 50.6% |  |
| Cc1nc(SCC(=O)Nn2c(-c3ccccc3)nc3ccccc3c2=O)n[nH]1 | 34.7% |  |
| CCOc1ccc(-c2cc(C(=O)NCCCn3ccnc3)c3cc(Br)ccc3n2)cc1 | inactive: -33.3% |  |
| CCc1ccc(-c2nc(CN3CCC(C(=O)NCCN(CC)c4ccccc4)CC3)c(C)o2)cc1 | inactive: -56% |  |
| O=C(/C=C/Nc1ccccc1)c1ccccc1 | 39.2% |  |

| SMILES | activity change, positive = activation | Potency |
| --- | --- | --- |
| COc1cc(NC(=O)N2c3ccccc3Sc3ccccc32)c(C(=O)O)cc1OC | inactive: -40.3% |  |
| Cc1cc(C)cc(CC(Cc2nc3ccccc3[nH]2)c2nc3ccccc3[nH]2)c1 (stereo not drawn) | inactive: -4.15% |  |
| COc1ccccc1OCC(=O)Nc1ccccn1 | 12.7% |  |
| Fc1cccc(NCc2cn3ccccc3n2)c1 | -14.3% |  |
| Cc1ccc(O)c(-c2cc(C(=O)Nc3ccc(S(=O)(=O)N4CC(C)OC(C)C4)cc3)[nH]n2)c1 (stereo not drawn) | inactive: -7.26% |  |
| CC(C)(C)c1ccc(/C=C/C(=O)Nc2nncs2)cc1 | 35.2% |  |
| CC(C)c1ccc2oc(-c3cc(N)ccc3O)nc2c1 | 50.2% |  |
| CC1=NN(C(N)=S)C(=O)C1N=Nc1ccc(F)cc1 (stereo not drawn) |  | active: 25.1 µM |
| O=C(Cc1sc(Nc2ccccc2)nc1-c1ccccc1)NCc1ccccc1 |  | active: 39.8 µM |
| Clc1ccc(-c2nnc(N3CCCC3)nn2)cc1 | 44.9% |  |
| Oc1ccccc1-c1cc(-c2ccccc2)no1 | 43.8% |  |
| O=C1c2ccccc2C(=O)C1c1ccnc2ccccc12 | 76.3% |  |
| [O-][N+]1=c2ccc(Nc3ccccc3)cc2=NC12CCCCC2 | inactive: -33.7% |  |
| CN(C)c1ccc(C=Nc2ccc(N(C)C)cc2)cc1 |  | active: 39.8 µM |
| O=C(/C=C/c1ccc(NC(=O)c2ccccc2-c2ccccc2C(=O)O)cc1)c1ccccc1 | inactive: -51.5% |  |
| O=C(O)CCC(=O)Nc1ccc(-n2ccc(C(F)(F)F)n2)cc1 | 20.8% |  |
| Cc1cnc(NC(=O)c2cc3c(s2)CCCC3)s1 | 24.6% |  |
| Cc1ccc2nc(-c3ccc(NC(=O)COC(=O)c4ccc(Br)o4)cc3)sc2c1 | 134% |  |
| COc1ccc(-c2nc3ccc([N+](=O)[O-])cc3[nH]2)cc1 | 128% |  |
| CCCOc1ccc(-c2nnc(-c3cccs3)o2)cc1 | 64.5% |  |
| COC(=O)CSc1nc2cc(C)ccc2cc1C#N | 210% |  |
| COc1ccc(C(=O)Nc2ccc3c(c2)OCCO3)cc1 | 41% |  |
| CCN(CC)c1ccc(NC2=C(Cl)C(=O)c3ccccc3C2=O)cc1 | inactive: -36.1% |  |

| SMILES | activity change, positive = activation | Potency |
| --- | --- | --- |
| Cc1cc(C)nc(SCc2ccc(C(=O)NNC(=O)Nc3cccc(Cl)c3)cc2)n1 | inactive: -32.3% |  |
| COc1ccccc1NC(=O)c1sc(Cl)nc1C | inactive: -62.4% |  |
| CC1=NN(C(N)=S)C(=O)C1N=Nc1ccc(Cl)cc1 (stereo not drawn) | 48.6% |  |
| c1ccc2c(c1)Cc1cc3ccccc3nc1-2 | 35.7% |  |
| CCCCOC(=O)Nc1ccc2c(C)cc(=O)oc2c1 | 37.4% |  |
| COc1ccc(-c2csc(NC(=O)c3ccccc3NS(=O)(=O)c3ccc(C)cc3)n2)cc1 | 40.1% |  |
| Cc1cc(C)c2nc(NC(=O)c3ccco3)sc2c1 | 54.2% |  |
| Cc1ccc2nc(SCn3nnc4ccccc4c3=O)[nH]c2c1 | 94.4% |  |
| CN(c1ccc(C(=O)COC(=O)C2CC2)cc1)S(C)(=O)=O |  | active: 35.5 µM |
| COc1ccc(N(C(=O)c2ccco2)C(C(=O)NC2CCCC2)c2cc(OC)c(OC)c(OC)c2)cc1 (stereo not drawn) | 42.3% |  |
| CCOc1ccc(NC(=O)c2ccccc2O)cc1 | 64.5% |  |
| COc1ccc2cc(S(=O)(=O)N3CCCCC3)ccc2c1S(=O)(=O)N1CCCCC1 | inactive: -6.92% |  |
| OC(COc1ccc2cc(Br)ccc2c1)CN1CCCC1 (stereo not drawn) | -46.1% |  |
| Cc1ccc(NC(=O)/C=C/c2ccc3c(c2)OCO3)nc1 | 97.5% |  |
| Cc1ccc(NCc2nc3ccccc3n2C)cc1 | 53.6% |  |
| CCOc1ccc(N2C(=O)CC(N)C2=O)cc1 (stereo not drawn) | inactive: -35.1% |  |
| CCOc1ccc(NC(=O)c2ccco2)c([N+](=O)[O-])c1 |  | active: 4.47 µM |
| CN(CC(=O)Nc1ccccc1Br)C(=O)c1ccccc1-c1nc2ccccc2s1 | inactive: -39.2% |  |
| CCCc1ccc(-c2cc(C(=O)Nc3ccc([N+](=O)[O-])cn3)c3ccccc3n2)cc1 | 51.6% |  |
| Clc1ccccc1Nc1nnc(-c2ccncc2)s1 | 48.9% |  |
| Oc1[nH]c2ccccc2c1C=Nc1ccc2c(c1)OCCO2 | 82.1% |  |
| CCCOc1ccc(/C=N/Nc2ccccc2[N+](=O)[O-])c(O)c1 | 29% |  |
| O=S(=O)(c1ccc2nc(-c3ccco3)c(-c3ccco3)nc2c1)N1CCOCC1 | inactive: -36.8% |  |

| SMILES | activity change, positive = activation | Potency |
| --- | --- | --- |
| CCn1c(C(C)NC(=O)c2ccc(OC)c(OC)c2)nc2ccccc21 (stereo not drawn) | 53.4% |  |
| O=C(c1cnn(-c2ccccc2)c1)c1ccccc1O | 161% |  |
| COCCn1c(C)cc(C(=O)COC(=O)c2cccnc2SC)c1C | 29.9% |  |
| COC(=O)CSc1nc2cc(OC)ccc2cc1C#N | 65.9% |  |
| O=[N+]([O-])c1ccc(NNC(=S)Nc2ccc(F)cc2)cc1 |  | active: 28.2 µM |
| COc1ccccc1C(=O)NC(=S)NNC(=O)c1sc2ccccc2c1Cl | 39.6% |  |
| Cc1cc(C(F)(F)F)c(C#N)c(SCC(=O)Nc2nc3ccccc3s2)n1 | -22% |  |
| C/C(=N\NC(=O)c1cc2c(s1)CCC(C)C2)c1ccc[nH]1 (stereo not drawn) | 55.7% |  |
| CCn1nnnc1SCC(=O)N1c2ccccc2Sc2ccccc21 | 44% |  |
| Cc1[nH]n(-c2ncc(-c3ccccc3)s2)c(=O)c1C(c1ccc(Br)cc1)C(C#N)C#N (stereo not drawn) | 30.1% |  |
| NS(=O)(=O)c1ccc2nc(NC(=O)Nc3ccccc3F)sc2c1 | 68.1% |  |
| CSc1ccccc1-c1nc(-c2ccncc2)no1 | 32.8% |  |
| COc1ccccc1-c1cc(C(=O)N2CCCCC2)no1 | 44.3% |  |
| Cc1ccccc1NC(=O)N1CCCC(c2nc(-c3ccc(C(C)C)cc3)no2)C1 (stereo not drawn) |  | active: 44.7 µM |
| CCOC(=O)C1=C(C)NC(SCC(=O)Nc2nc(C)cs2)=C(C#N)C1c1cccs1 (stereo not drawn) | inactive: -56.4% |  |
| Cc1ccc(-c2nnc(Oc3cccc(C)c3)c3ccccc23)cc1 | 83.5% |  |
| Clc1ccc(CSc2snnc2-c2ccccc2)c(Cl)c1 |  | active: 39.8 µM |
| O=c1c2ccccc2nc(SCc2cccc(F)c2)n1C1CCCC1 | inactive: -33.8% |  |
| COc1ccccc1Nc1nc(C)cs1 | inactive: 17.9% |  |
| Cc1cc(/C=C2/C(=O)NN(c3ccccc3)C2=O)c(C)n1-c1cccc(O)c1 | 162% |  |
| CC(C)CN1CCC(Oc2cccc(C(=O)NCCc3ccccc3)c2)CC1 |  | active: 39.8 µM |
| Cc1nc(-c2ccc(NC(=O)c3cccs3)cc2)cs1 | 60.5% |  |
| Cc1cccc(N2CCN(c3cc(C)nc4nnnn34)CC2C)c1 (stereo not drawn) | inactive: 7.44% |  |

| SMILES | activity change, positive = activation | Potency |
| --- | --- | --- |
| CCc1nn2cc(-c3ccccc3)nc2s1 | inactive: -21.4% |  |
| COc1ccc(C(=O)Nc2cc(C(=O)c3ccccc3)c(C)oc2=O)cc1 | inactive: -58.3% |  |
| O=C1CCCN1CCC(=O)N1CCCC(CO)(Cc2ccccc2)C1 (stereo not drawn) |  | active: 28.2 µM |
| O=C(c1ccco1)n1c(=S)nc2ccccn21 | 46.2% |  |
| CCOC(=O)/C=C/C(=O)OCC(=O)N1CCN(C(=O)c2ccco2)CC1 | inactive: -34.6% |  |
| Cc1csc(NC(=O)c2cc3c(s2)CCC3)n1 | 38% |  |
| C=CC[C@@H](CC(=O)N(CCO)Cc1ccccc1)C(=O)N[C@@H](COC(=O)[C@H](CC=C)CC(=O)OC(C)(C)C)Cc1c[nH]c2ccccc12 | inactive: 2.74% |  |
| C(=C\c1nc(-c2ccccc2)no1)/c1ccccc1 | 154% |  |
| O=c1cc(-c2ccc(O)c(O)c2)oc2ccc3ccccc3c12 | 51.7% |  |
| c1ccc(-c2cn3c4c(sc3n2)CCCC4)cc1 | -17.3% |  |
| COC(=O)c1ccc(COc2cccc3c2CCN(Cc2ccccc2)C3=O)o1 | inactive: -32.1% |  |
| O=C(Nc1n[nH]c(C2CCCCC2)n1)C1CCCCC1 | 24.8% |  |
| CCN(CC(=O)Nc1c(C(=O)OC)[nH]c2ccc(Cl)cc12)c1ccc2c(c1)OCO2 | inactive: 3.64% |  |
| Cc1ccc(/C=C/C(O)=C2/C(=O)N(C)C3(C)CC2c2ccccc2O3)cc1 (stereo not drawn) | inactive: -31% |  |
| CCOc1ccc2cc(C#N)c(SCC(=O)OC)nc2c1 | 42.1% |  |
| Cc1cccc2cc(/C=N/Nc3ccc(C(=O)O)cc3)c(Cl)nc12 | 38.4% |  |
| O=C(/C=C/Nc1ccccc1F)c1ccc(Br)cc1 | 31.7% |  |
| N#C/C(=C/c1ccc(O)c(O)c1)C(=O)NCc1ccc(Cl)cc1 | 42.1% |  |
| C/C(=N\NC(=O)C1(C)CC1(Br)Br)c1cccc(NC(=O)c2ccc(C)o2)c1 (stereo not drawn) | inactive: -48.7% |  |
| Cc1onc(-c2c(F)cccc2Cl)c1C(=O)NCc1ccc2c(c1)OCO2 | inactive: -32.1% |  |
| Clc1ccc(-c2cn3c(n2)-c2ccccc2C3)cc1Cl | 110% |  |

Four structures out of the list, sorted by SMILES length, smallest number first:

| SMILES | activity change, positive = activation | Potency |
| --- | --- | --- |
| Clc1ccccc1Nc1nnc(-c2ccncc2)s1 | 48.9% |  |
| CC1=NN(C(N)=S)C(=O)C1N=Nc1ccc(Cl)cc1 (stereo not drawn) | 48.6% |  |
| CCN(CC)c1ccc(NC2=C(Cl)C(=O)c3ccccc3C2=O)cc1 | inactive: -36.1% |  |
| COC(=O)c1ccc(COc2cccc3c2CCN(Cc2ccccc2)C3=O)o1 | inactive: -32.1% |  |
